Among the data in article PMC11083118 are binding values, retold here.

These are yes or no findings as the source states them, for the method shown. In cells and extracts the contact can be indirect. Some entries that bind do so weakly or less than the wild type.

Assay [1] has as its target T1, vinculin (rat (endogenous in IAR-20, IAR-6-1, IAR-6-1-DNE)) (UniProt P85972).
T1 sequence: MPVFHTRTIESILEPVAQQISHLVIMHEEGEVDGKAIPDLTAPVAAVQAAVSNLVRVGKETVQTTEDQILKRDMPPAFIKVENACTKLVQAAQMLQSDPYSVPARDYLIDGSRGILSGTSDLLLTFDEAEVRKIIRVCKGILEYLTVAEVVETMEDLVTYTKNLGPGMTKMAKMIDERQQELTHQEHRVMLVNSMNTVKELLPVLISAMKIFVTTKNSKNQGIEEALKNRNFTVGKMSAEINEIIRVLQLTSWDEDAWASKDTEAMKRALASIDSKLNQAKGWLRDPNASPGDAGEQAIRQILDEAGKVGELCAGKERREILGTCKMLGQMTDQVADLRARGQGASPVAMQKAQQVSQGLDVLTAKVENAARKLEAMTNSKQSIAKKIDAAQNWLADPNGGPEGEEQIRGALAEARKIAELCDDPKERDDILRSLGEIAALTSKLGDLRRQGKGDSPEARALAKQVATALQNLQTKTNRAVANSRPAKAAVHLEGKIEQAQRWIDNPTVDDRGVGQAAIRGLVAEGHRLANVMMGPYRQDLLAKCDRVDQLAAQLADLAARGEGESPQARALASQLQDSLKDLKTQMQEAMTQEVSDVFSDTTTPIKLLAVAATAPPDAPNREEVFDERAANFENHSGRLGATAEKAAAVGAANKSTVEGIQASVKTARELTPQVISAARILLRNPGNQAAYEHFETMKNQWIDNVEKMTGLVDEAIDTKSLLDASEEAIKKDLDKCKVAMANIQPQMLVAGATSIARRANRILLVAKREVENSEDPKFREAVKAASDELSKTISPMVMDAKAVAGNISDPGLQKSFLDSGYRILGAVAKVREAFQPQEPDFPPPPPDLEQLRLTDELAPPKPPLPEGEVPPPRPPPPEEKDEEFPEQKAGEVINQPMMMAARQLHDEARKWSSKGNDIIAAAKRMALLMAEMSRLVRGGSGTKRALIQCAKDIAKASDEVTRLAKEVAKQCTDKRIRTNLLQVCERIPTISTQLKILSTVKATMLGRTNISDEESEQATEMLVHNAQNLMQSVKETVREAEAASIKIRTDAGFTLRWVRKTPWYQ
In words: co-IP; total cell lysates (10 mM Tris-HCl pH 7.5, 0.5 mM EDTA, 150 mM NaCl, 0.5% Na deoxycholate, 1% NP-40, protease and phosphatase inhibitors) incubated with primary antibody, then Protein A or G agarose, +4 °C; Western blot; sparse cultures of control IAR-20, IAR-20 treated with EGF for 20 min, IAR-6-1 and IAR-6-1-DNE cells. In general terms: In western blotting, separated proteins are transferred to a membrane and probed.

For assay [2], the target named is T2, α-catenin (rat (endogenous in IAR-20, IAR-6-1, IAR-6-1-DNE)) (UniProt Q5U302).
T2 sequence: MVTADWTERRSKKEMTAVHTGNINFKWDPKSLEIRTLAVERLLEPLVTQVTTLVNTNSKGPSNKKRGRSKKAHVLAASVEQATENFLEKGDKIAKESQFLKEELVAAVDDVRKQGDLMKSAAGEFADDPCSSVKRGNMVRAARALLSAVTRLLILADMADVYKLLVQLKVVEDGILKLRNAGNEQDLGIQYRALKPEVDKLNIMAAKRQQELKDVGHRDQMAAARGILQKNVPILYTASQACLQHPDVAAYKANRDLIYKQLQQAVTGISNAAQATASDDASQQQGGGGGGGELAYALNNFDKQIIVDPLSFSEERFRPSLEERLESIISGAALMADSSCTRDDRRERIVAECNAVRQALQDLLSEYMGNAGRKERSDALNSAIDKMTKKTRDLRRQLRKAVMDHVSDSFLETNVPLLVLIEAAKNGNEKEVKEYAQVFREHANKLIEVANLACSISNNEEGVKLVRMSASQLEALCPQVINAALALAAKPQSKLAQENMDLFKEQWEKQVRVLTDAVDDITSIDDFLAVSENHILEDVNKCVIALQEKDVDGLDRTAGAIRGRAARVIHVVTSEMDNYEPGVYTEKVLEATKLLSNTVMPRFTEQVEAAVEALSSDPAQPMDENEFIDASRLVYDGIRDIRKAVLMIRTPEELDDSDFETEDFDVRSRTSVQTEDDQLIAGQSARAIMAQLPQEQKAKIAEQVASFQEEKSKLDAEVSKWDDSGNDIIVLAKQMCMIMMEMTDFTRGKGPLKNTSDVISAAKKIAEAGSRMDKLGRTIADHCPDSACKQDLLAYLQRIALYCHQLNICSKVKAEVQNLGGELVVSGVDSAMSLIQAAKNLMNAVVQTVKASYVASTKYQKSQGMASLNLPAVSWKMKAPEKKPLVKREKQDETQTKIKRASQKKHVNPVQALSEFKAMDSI
Described as above.

B1: pY654-β-catenin (protein, UniProt Q9WU82 1-781)
chain: MATQADLMELDMAMEPDRKAAVSHWQQQSYLDSGIHSGATTTAPSLSGKGNPEEEDVDTSQVLYEWEQGFSQSFTQEQVADIDGQYAMTRAQRVRAAMFPETLDEGMQIPSTQFDAAHPTNVQRLAEPSQMLKHAVVNLINYQDDAELATRAIPELTKLLNDEDQVVVNKAAVMVHQLSKKEASRHAIMRSPQMVSAIVRTMQNTNDVETARCTAGTLHNLSHHREGLLAIFKSGGIPALVKMLGSPVDSVLFYAITTLHNLLLHQEGAKMAVRLAGGLQKMVALLNKTNVKFLAITTDCLQILAYGNQESKLIILASGGPQALVNIMRTYTYEKLLWTTSRVLKVLSVCSSNKPAIVEAGGMQALGPHLTDPSQRLVQNCLWTLRNLSDAATKQEGMEGLLGTLVQLLGSDDINVVTCAAGILSNLTCNNYKNKMMVCQVGGIEALVRTVLRAGDREDITEPAICALRHLTSRHQEAEMAQNAVRLHYGLPVVVKLLHPPSHWPLIKATVGLIRNLALCPANHAPLREQGAIPRLVQLLVRAHQDTQRRTSMGGTQQQFVEGVRMEEIVEGCTGALHILARDVHNRIVIRGLNTIPLFVQLLYSPIENIQRVAAGVLCELAQDKEAAEAIEAEGATAPLTELLHSRNEGVATYAAAVLFRMSEDKPQDYKKRLSVELTSSLFRTEPMAWNETADLGLDIGAQGEALGYRQDDPSYRSFHSGGYGQDALGMDPMMEHEMGGHHPGADYPVDGLPDLGHAQDLMDGLPPGDSNQLAWFDTDL
modifications: phosphotyrosine at 654
Consider B1, for which, in assay [1], the binding result is recorded as “binds”.

B2: β-catenin (protein, UniProt Q9WU82 1-781)
chain: MATQADLMELDMAMEPDRKAAVSHWQQQSYLDSGIHSGATTTAPSLSGKGNPEEEDVDTSQVLYEWEQGFSQSFTQEQVADIDGQYAMTRAQRVRAAMFPETLDEGMQIPSTQFDAAHPTNVQRLAEPSQMLKHAVVNLINYQDDAELATRAIPELTKLLNDEDQVVVNKAAVMVHQLSKKEASRHAIMRSPQMVSAIVRTMQNTNDVETARCTAGTLHNLSHHREGLLAIFKSGGIPALVKMLGSPVDSVLFYAITTLHNLLLHQEGAKMAVRLAGGLQKMVALLNKTNVKFLAITTDCLQILAYGNQESKLIILASGGPQALVNIMRTYTYEKLLWTTSRVLKVLSVCSSNKPAIVEAGGMQALGPHLTDPSQRLVQNCLWTLRNLSDAATKQEGMEGLLGTLVQLLGSDDINVVTCAAGILSNLTCNNYKNKMMVCQVGGIEALVRTVLRAGDREDITEPAICALRHLTSRHQEAEMAQNAVRLHYGLPVVVKLLHPPSHWPLIKATVGLIRNLALCPANHAPLREQGAIPRLVQLLVRAHQDTQRRTSMGGTQQQFVEGVRMEEIVEGCTGALHILARDVHNRIVIRGLNTIPLFVQLLYSPIENIQRVAAGVLCELAQDKEAAEAIEAEGATAPLTELLHSRNEGVATYAAAVLFRMSEDKPQDYKKRLSVELTSSLFRTEPMAWNETADLGLDIGAQGEALGYRQDDPSYRSFHSGGYGQDALGMDPMMEHEMGGHHPGADYPVDGLPDLGHAQDLMDGLPPGDSNQLAWFDTDL
On to B2, for which the binding entry in assay [2] is recorded as “binds”.

B3: α-catenin (protein, UniProt Q5U302 1-922)
chain: MVTADWTERRSKKEMTAVHTGNINFKWDPKSLEIRTLAVERLLEPLVTQVTTLVNTNSKGPSNKKRGRSKKAHVLAASVEQATENFLEKGDKIAKESQFLKEELVAAVDDVRKQGDLMKSAAGEFADDPCSSVKRGNMVRAARALLSAVTRLLILADMADVYKLLVQLKVVEDGILKLRNAGNEQDLGIQYRALKPEVDKLNIMAAKRQQELKDVGHRDQMAAARGILQKNVPILYTASQACLQHPDVAAYKANRDLIYKQLQQAVTGISNAAQATASDDASQQQGGGGGGGELAYALNNFDKQIIVDPLSFSEERFRPSLEERLESIISGAALMADSSCTRDDRRERIVAECNAVRQALQDLLSEYMGNAGRKERSDALNSAIDKMTKKTRDLRRQLRKAVMDHVSDSFLETNVPLLVLIEAAKNGNEKEVKEYAQVFREHANKLIEVANLACSISNNEEGVKLVRMSASQLEALCPQVINAALALAAKPQSKLAQENMDLFKEQWEKQVRVLTDAVDDITSIDDFLAVSENHILEDVNKCVIALQEKDVDGLDRTAGAIRGRAARVIHVVTSEMDNYEPGVYTEKVLEATKLLSNTVMPRFTEQVEAAVEALSSDPAQPMDENEFIDASRLVYDGIRDIRKAVLMIRTPEELDDSDFETEDFDVRSRTSVQTEDDQLIAGQSARAIMAQLPQEQKAKIAEQVASFQEEKSKLDAEVSKWDDSGNDIIVLAKQMCMIMMEMTDFTRGKGPLKNTSDVISAAKKIAEAGSRMDKLGRTIADHCPDSACKQDLLAYLQRIALYCHQLNICSKVKAEVQNLGGELVVSGVDSAMSLIQAAKNLMNAVVQTVKASYVASTKYQKSQGMASLNLPAVSWKMKAPEKKPLVKREKQDETQTKIKRASQKKHVNPVQALSEFKAMDSI
Take B3: in assay [1], the binding entry is reported as “binds”.
